Measurements published in patent publication EP0341603A2 (ABBOTT LABORATORIES, priority 1988, dated 1989).

Test: general procedure: Boc solid-phase peptide synthesis; p-Methyl-Benzhydrylamine resin; N-alpha-t-Boc-Arg(N^G-Tos) Merrifield resin; benzhydrylamine resin; diisopropylcarbodiimide
Conditions: whole synthesis, scale 0.8 g protected peptide resin

## Arginyl-Cysteinyl-D-Alanyl-Phenylalanyl-Glycyl-Glycyl-Arginyl-Leucyl-Aspartyl-Arginyl-Isoleucyl-Cysteinyl-Phenylalanyl-Arginyl-Carboxamide Cyclic Disulfide
  isolated mass: 28 mg
  isolated yield: 6%
